In PubChem BioAssay AID1259415 (National Center for Advancing Translational Sciences (NCATS), 2018):
Hit rate of the full screen: of about 410,000 compounds, about 18,000 (4.4%) were called active. Inconclusive results, whose numbers are uncertain, are shown with a selection of clear calls. Cut-off read from the data, not from the text of the source: active = activity change below about -60%; inconclusive = no clear call, values can overlap the other calls; inactive = above about -39%.
% is set by controls: 0 for no effect and ±100 for the full control effect.

Assay: qHTS Assay for inhibitors of the human cytomegalovirus (HCMV)
Conditions: HFF cells, HCMV-luciferase reporter, 72 h; at 57.5 µM; stronger effect = lower value
Procedure, shortened: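 Cell-based, HFFs, 1000 cells/well, 16 h 37C; cpds in DMSO + HCMV-luc, MOI 1 PFU/cell; 72 h 37C; OneGlo luminescence after 5 min RT; norm. to buffer vs Salinomycin 10uM.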
With CC1c2cc3c(cc2CCN1C(=O)c1ccc(C(F)(F)F)cc1)OCCCO3 (configuration not stated) the activity change, negative = inhibition was inconclusive: -41.4%.
For COc1cc(Cl)ccc1NC(=O)COc1ccccc1C(=O)N1CCN(c2ccc(O)cc2)CC1, the activity change, negative = inhibition was inconclusive: -44.9%.
With CC(=O)NC(c1ccccc1)c1cc(Cl)c2cccnc2c1O (configuration not stated) the activity change, negative = inhibition was active: -95%.
In the case of CC(C)Cn1c(=O)c2ccccc2n2c(CCC(=O)NC(C)c3ccccc3)nnc12 (configuration not stated), the activity change, negative = inhibition is reported as inconclusive: -40.9%.
In the case of Cc1nn(Cc2ccc(Cl)cc2)c(C)c1NC(=O)CSc1n[nH]c(C)c1[N+](=O)[O-], the activity change, negative = inhibition is reported as inactive: -2.66%.
For Cc1nn(-c2ccc(N3CCCC3)nn2)c(C)c1CCC(=O)Nc1ccc(F)c(Cl)c1, the activity change, negative = inhibition was inconclusive: -44.8%.
With Cc1cc(C(=O)Cn2nnc(-c3ccc(Cl)cc3)n2)c(C)n1-c1ccccc1 the activity change, negative = inhibition was inconclusive: -46.8%.
In the case of O=C(Cc1c(F)cccc1Cl)N/N=C/c1cccs1, the activity change, negative = inhibition is reported as active: -74.8%.
For CC(Sc1ccc(S(=O)(=O)N2CCN(C)CC2)cn1)C(=O)Nc1cccc(Cl)c1Cl (configuration not stated), the activity change, negative = inhibition was inconclusive: -43.8%.
For N#Cc1ccc(C(=O)Nc2ccc3c(c2)N(C2CCCC2)C(=O)c2ccccc2S3)cc1, the activity change, negative = inhibition was inactive: -31.9%.
With O=C(CSc1ccc(F)cc1)N1CCOCC1 the activity change, negative = inhibition was active: -88.2%.
In the case of Cc1cc(F)c(F)c(C(=O)N2CCCCC2C)c1Cl (configuration not stated), the activity change, negative = inhibition is reported as inconclusive: -48.5%.
For CC(C)C[C@@H](CN1CCCC1CN1C(=S)NC[C@@H]1Cc1ccc(O)cc1)N1C[C@H](Cc2ccccc2)N(CC2CCCCC2)C1=S (some centres not stated), the activity change, negative = inhibition was active: -70.5%.
With S=C(NCc1ccncc1)Nc1ccc(Cl)cc1Cl the activity change, negative = inhibition was inconclusive: -42.3%.
For COc1ccc2nc3cccc(OC)c3nc2c1, the activity change, negative = inhibition was inactive: 15.9%.
In the case of COc1ccc(C(=O)Nc2ccccc2C(=O)N/N=C/c2ccncc2)cc1OC, the activity change, negative = inhibition is reported as inactive: 66.1%.
In the case of CCCCC(=O)N(C)c1c(CC)nc2c(OCC3CCCCC3)cccn12, the activity change, negative = inhibition is reported as active: -63.9%.
With O=C(Nc1ccc(OC(F)(F)F)cc1)C1CCN(S(=O)(=O)c2cccs2)CC1 the activity change, negative = inhibition was active: -88.4%.
For Cc1ccc(Nc2nc(N)c([N+](=O)[O-])c(NCc3ccccc3)n2)cc1, the activity change, negative = inhibition was inconclusive: -40.9%.
For COc1cc(NS(=O)(=O)c2ccc(OC)c(C)c2C)c(OC)cc1Cl, the activity change, negative = inhibition was inconclusive: -47.4%.
With S=C(NCc1cccc(Cl)c1)NCc1ccco1 the activity change, negative = inhibition was inconclusive: -42.6%.
In the case of Cn1ncc2c(N3CCC(Cc4ccccc4)CC3)ncnc21, the activity change, negative = inhibition is reported as inconclusive: -49.4%.
With CN(C)c1ccc(/C=C(\C#N)c2nc(-c3ccc(Cl)c(Cl)c3)cs2)cc1 the activity change, negative = inhibition was inactive: 5.58%.
For COC(=O)c1ccc2nc(-c3ccco3)c(Cc3ccccc3)n2c1, the activity change, negative = inhibition was inactive: 121%.
In the case of OCCC1CN(Cc2cnc(-c3ccccc3)s2)CCN1Cc1ccccc1 (configuration not stated), the activity change, negative = inhibition is reported as inconclusive: -46%.
For COc1ccccc1NC(=O)N1C2CCCC1CC(NC(=O)c1ccccc1)C2 (configuration not stated), the activity change, negative = inhibition was inconclusive: -41.7%.
In the case of O=C(O)c1c2c(nc3ccccc13)/C(=C/c1ccc(O)cc1)CCC2, the activity change, negative = inhibition is reported as inconclusive: -44%.
For CCOc1ccccc1NC(=O)COC(=O)c1cc[n+]([O-])cc1, the activity change, negative = inhibition was inconclusive: 0%.
With O=c1c2ccccc2nc(N2CCCC2)n1-c1ccc(Cl)cc1 the activity change, negative = inhibition was active: -62.7%.
With Cc1ncoc1C(=O)N1CCCC(C(=O)c2ccc3c4c(cccc24)CC3)C1 (configuration not stated) the activity change, negative = inhibition was active: -68.2%.
In the case of CCN(CC)C(=O)c1cccc(-c2csc(C(O)c3cccc(Cl)c3)n2)c1 (configuration not stated), the activity change, negative = inhibition is reported as inconclusive: -47.6%.
With CCOC(=O)N1CCN(C(=O)C(C)N(c2ccc(Oc3ccccc3)cc2)S(C)(=O)=O)CC1 (configuration not stated) the activity change, negative = inhibition was active: -65.4%.
In the case of Cc1ccc(S(=O)(=O)N/N=C\c2cc([N+](=O)[O-])ccc2Cl)cc1, the activity change, negative = inhibition is reported as active: -89.9%.
In the case of CCCNC(=O)c1cc2c3ccccc3n(C)c2s1, the activity change, negative = inhibition is reported as inactive: 76.4%.
For CSc1nc2ccc(NS(=O)(=O)c3cccc(Cl)c3Cl)cc2s1, the activity change, negative = inhibition was inconclusive: -41%.
In the case of O=C(CN1CCN(c2ncc(C(F)(F)F)cc2Cl)CC1)N1CCN(c2ncc(C(F)(F)F)cc2Cl)CC1, the activity change, negative = inhibition is reported as inconclusive: -47.1%.
In the case of O=C(CC1C(=O)NCCN1CC1CCCCC1)NCc1ccc(F)cc1 (configuration not stated), the activity change, negative = inhibition is reported as inconclusive: -57.8%.
With N#C/C(=C\c1cccc(NC(=O)c2ccccc2Cl)c1)C(=O)NCCc1ccccc1 the activity change, negative = inhibition was inconclusive: -41.1%.
For O=C(Cn1nnc2ccccc2c1=O)NC1CCCCC1, the activity change, negative = inhibition was inactive: 6.42%.
In the case of COC(=O)c1ccc(C2C(C#N)=C(N)Oc3cc(N)ccc32)cc1 (configuration not stated), the activity change, negative = inhibition is reported as inactive: 17.7%.
In the case of CC(CC(=O)Nc1ccc(F)cc1)S(=O)(=O)c1cc2c3c(c1)CCN3C(=O)CC2 (configuration not stated), the activity change, negative = inhibition is reported as inactive: -11.4%.
With CC(C)C(=O)Nc1c(C(=O)N2CCN(c3ncccn3)CC2)oc2ccccc12 the activity change, negative = inhibition was inconclusive: -49.4%.
With COc1ccc(-n2ncc3c(N4CCN(c5cc(C)ccc5C)CC4)ncnc32)cc1 the activity change, negative = inhibition was inactive: 73.4%.
For O=C1N/C(=C\c2ccc(N3CCOCC3)c(F)c2)C(=O)N1Cc1ccccc1, the activity change, negative = inhibition was inconclusive: -44.1%.
In the case of CCOc1ncccc1C(=O)OCc1csc(CC(=O)Nc2ccccc2C)n1, the activity change, negative = inhibition is reported as inconclusive: -42.1%.
For O=C(CO/N=C/c1ccc(Cl)cc1Cl)NNC(=O)c1cccc(Cl)c1, the activity change, negative = inhibition was inconclusive: -45.9%.
For Cc1ccc2cc(NC(=O)Cc3ccccc3)ccc2n1, the activity change, negative = inhibition was inactive: 88.1%.
In the case of Cc1ccc(-n2nnnc2SCc2ccc(C(=O)O)cc2)cc1C, the activity change, negative = inhibition is reported as inactive: -20.9%.
In the case of CC1Cc2cc(S(=O)(=O)N3CCC(C(=O)NCc4ccco4)CC3)ccc2N1C(=O)C1CCC1 (configuration not stated), the activity change, negative = inhibition is reported as inconclusive: -51.8%.
With CCOc1cc2c(cc1OCC)C(C(=O)O)C(c1cc(OC)c(OC)c(OC)c1)N(C)C2=O (configuration not stated) the activity change, negative = inhibition was inactive: 3.44%.
For O=C1NC[C@@H](CCCCN2C[C@H](Cc3ccccc3)N(Cc3ccccc3)C(=O)C2=O)N(CCc2ccccc2)C1=O, the activity change, negative = inhibition was inactive: -13.8%.
For Cc1ccc(C(=O)Nc2cc(-c3cn4cccnc4n3)ccc2C)cc1C, the activity change, negative = inhibition was inactive: 20.1%.
With Cc1ccc(C)c(NC(=O)c2nc(S(=O)(=O)Cc3ccc(F)cc3)ncc2Cl)c1 the activity change, negative = inhibition was active: -100%.
With COc1ccc(-c2cc(-c3nc(-c4cc(OC)c(OC)c(OC)c4)no3)[nH]n2)c(OC)c1 the activity change, negative = inhibition was active: -68.8%.
In the case of CC(=O)NCCNC(=O)CCCc1nnc2n(CC(C)C)c(=O)c3sccc3n12, the activity change, negative = inhibition is reported as inconclusive: -53.3%.
In the case of Cc1nc2ccccc2n1Cc1ccc(Cl)cc1, the activity change, negative = inhibition is reported as active: -89.2%.
In the case of COc1cccc(NC(=O)Cn2c(=O)n(Cc3ccc(F)cc3)c(=O)c3sc4ccccc4c32)c1, the activity change, negative = inhibition is reported as inconclusive: -51.5%.
In the case of O=C(COC(=O)c1cnccn1)Nc1c(Cl)cc(Cl)cc1Cl, the activity change, negative = inhibition is reported as inconclusive: 0%.
In the case of COc1cc(C(=O)OC2C[C@H]3CC[C@@H](C2)N3C)ccc1O (some centres not stated), the activity change, negative = inhibition is reported as inactive: 30.1%.
In the case of COc1ccc(OC)c(/C=C/C(=O)OCC(=O)Nc2nnc(-c3ccccc3)o2)c1, the activity change, negative = inhibition is reported as inconclusive: -48.8%.
For CC(O)C(O)C(O)C(O)C1NCCS1 (configuration not stated), the activity change, negative = inhibition was inconclusive: -46.4%.
In the case of O=S(=O)(Nc1cccc(-c2ccc3nncn3n2)c1)c1cccs1, the activity change, negative = inhibition is reported as inactive: 31%.
With COc1ccccc1NS(=O)(=O)c1cccc(C(=O)N/N=C/c2ccc3c(c2)OCCO3)c1 the activity change, negative = inhibition was active: -63.4%.
With COCCn1c(SC(C)C(=O)Nc2ccc3c(c2)OCCO3)nc2ccccc2c1=O (configuration not stated) the activity change, negative = inhibition was inactive: -4.71%.
With CC1(C)CC(NC(=O)c2ccccc2F)CC(C)(C)N1 the activity change, negative = inhibition was inactive: 22.7%.
With COc1cccc(OC)c1CN1CCCC(C(=O)c2ccccc2SC)C1 (configuration not stated) the activity change, negative = inhibition was inconclusive: -51.7%.
With N=C1c2ccccc2CN1NC(=O)c1ccc(F)cc1 the activity change, negative = inhibition was inconclusive: -40.7%.
With COCCn1c(CN2CCC(Cc3ccccc3)CC2)nc2c1c(=O)n(C)c(=O)n2C the activity change, negative = inhibition was active: -64.7%.
In the case of Cc1nnc(-c2cnn(-c3ccccc3)c2N)n1Cc1ccc(F)cc1, the activity change, negative = inhibition is reported as inactive: -35.2%.
For Cc1ccc(-c2nnc(N3CC(C)OC(C)C3)c3ccccc23)cc1 (configuration not stated), the activity change, negative = inhibition was inconclusive: -59.4%.
For O=C(NNc1c2ccccc2nc2ccccc12)c1cc2ccccc2cc1O, the activity change, negative = inhibition was inconclusive: -50%.
In the case of Cc1ccc(CNC(=O)Cn2nnc(C(=O)Nc3cc(C)ccc3C)c2N)cc1, the activity change, negative = inhibition is reported as inconclusive: -43.2%.
In the case of Cc1ccc2[nH]c3c(N4CCN(Cc5ccc6c(c5)OCO6)CC4)ncnc3c2c1, the activity change, negative = inhibition is reported as inconclusive: -48%.
In the case of CC1CCN(Cc2nc3c(c(=O)n(C)c(=O)n3C)n2CCc2ccccc2)CC1, the activity change, negative = inhibition is reported as active: -62.3%.
With C[C@]12C(=O)N(c3ccc(C(F)(F)F)cc3)C(=O)N1[C@@H]1c3ccccc3OC[C@@H]1[C@H]2c1ccccc1 the activity change, negative = inhibition was inconclusive: -44.5%.
For COc1ccccc1C1C(C(=O)c2ccco2)=C(O)C(=O)N1c1cc(C)on1 (configuration not stated), the activity change, negative = inhibition was inconclusive: -54.5%.
In the case of CCOC(=O)C[n+]1c(C)csc1C, the activity change, negative = inhibition is reported as inactive: -3.91%.
With COc1ccc(C)cc1S(=O)(=O)N1CCCC(C(=O)N2CCN(c3ccccc3)CC2)C1 (configuration not stated) the activity change, negative = inhibition was active: -69%.
For Cc1cc(C)cc(-n2ccnc2SCC(=O)Nc2ccccc2F)c1, the activity change, negative = inhibition was inconclusive: -41.7%.
In the case of COC(=O)C1(O)CC(C(C)C)=NN1C(=O)c1ccc(Cl)cc1 (configuration not stated), the activity change, negative = inhibition is reported as inactive: 27.1%.
In the case of CCN(CC)C(=O)c1sc2c(c1C)c(=O)n(-c1ccc(OC)cc1OC)c(=O)n2CC(=O)Nc1ccccc1, the activity change, negative = inhibition is reported as inactive: -0.491%.
For COCCNC(=O)CN(C(=O)Cn1nnc2ccccc21)c1ccccc1C, the activity change, negative = inhibition was inactive: -29.5%.
In the case of O=C(CSc1cccc2cccnc12)Nc1cccc(S(=O)(=O)N2CCOCC2)c1, the activity change, negative = inhibition is reported as inactive: -33%.
With O=C1c2ccccc2NC(c2cn[nH]c2-c2ccccc2)N1O (configuration not stated) the activity change, negative = inhibition was inactive: -18.7%.
For Cc1cc2c(nc1C)CCCN2Cc1ccccn1, the activity change, negative = inhibition was inactive: 9.73%.
For Cc1occc1C(=O)NNC(=O)c1ccccc1F, the activity change, negative = inhibition was inconclusive: -54.8%.
With O=C(CCCC(=O)N(c1ccc2c(c1)OCCO2)C(C(=O)NC1CCCCC1)c1ccc(Cl)cc1)Nc1ccccn1 (configuration not stated) the activity change, negative = inhibition was active: -68.7%.
